Measurements from paper PMC7082817.
No constants are given. Whether binding was seen depends on the method and setting. Binding seen in cells or lysates may run through a third protein. These calls come from enrichment with a bait or labelling near it, and not all partners need be listed.

Target: EGFP-RRSPPa H485A (Photorhabdus asymbiotica ATCC43949)
Test: affinity purification with mass spectrometry; HeLa cells transfected 16 h with pEGFP or pEGFP-RRSPPa H485A, lysed in RIPA buffer; lysate on anti-GFP magnetic beads 2 h at room temperature, washed with PBST; bands of a silver-stained SDS-PAGE gel analysed by nano LC-MS/MS

B1: vacuolar protein sorting-associated protein 51 (protein, UniProt Q9UID3 1-782)
chain: MAAAAAAGPSPGSGPGDSPEGPEGEAPERRRKAHGMLKLYYGLSEGEAAGRPAGPDPLDPTDLNGAHFDPEVYLDKLRRECPLAQLMDSETDMVRQIRALDSDMQTLVYENYNKFISATDTIRKMKNDFRKMEDEMDRLATNMAVITDFSARISATLQDRHERITKLAGVHALLRKLQFLFELPSRLTKCVELGAYGQAVRYQGRAQAVLQQYQHLPSFRAIQDDCQVITARLAQQLRQRFREGGSGAPEQAECVELLLALGEPAEELCEEFLAHARGRLEKELRNLEAELGPSPPAPDVLEFTDHGGSGFVGGLCQVAAAYQELFAAQGPAGAEKLAAFARQLGSRYFALVERRLAQEQGGGDNSLLVRALDRFHRRLRAPGALLAAAGLADAATEIVERVARERLGHHLQGLRAAFLGCLTDVRQALAAPRVAGKEGPGLAELLANVASSILSHIKASLAAVHLFTAKEVSFSNKPYFRGEFCSQGVREGLIVGFVHSMCQTAQSFCDSPGEKGGATPPALLLLLSRLCLDYETATISYILTLTDEQFLVQDQFPVTPVSTLCAEARETARRLLTHYVKVQGLVISQMLRKSVETRDWLSTLEPRNVRAVMKRVVEDTTAIDVQVGLLYEEGVRKAQSSDSSKRTFSVYSSSRQQGRYAPSYTPSAPMDTNLLSNIQKLFSERIDVFSPVEFNKVSVLTGIIKISLKTLLECVRLRTFGRFGLQQVQVDCHFLQLYLWRFVADEELVHLLLDEVVASAALRCPDPVPMEPSVVEVICERG
With B1 the binding was “binds”.
